{"source": "patent US12473303B2", "about": "“4-[[(7-aminopyrazolo[1,5-a]pyrimidin-5-yl)amino methyl]piperidin-3-ol compounds and their therapeutic use” (CARRICK THERAPEUTICS LIMITED, priority 2019, dated 2025)", "test_system": "A673 cells", "assay": "Cellular potency in A673 cells", "assay_type": "cell-based", "details": "Homo sapiens, Table 2"}
{"smiles": "CCc1cnn2c(NCc3ccc[n+]([O-])c3)cc(N3CCCC[C@H]3CCO)nc12", "note": "[Dinaciclib, reference compound]", "values": [{"measurement": "IC50", "value": 4.9, "unit": "nM"}]}
